Results reported in PMC5964149.
Results are given in words; binding and its absence hold for the method and conditions named. In cells and extracts the contact can be indirect. Some binding calls cover weakened binding; strength is not graded here.

Sequences of proteins named here, by UniProt entry; tags and fusion partners are left off.
UniProt P35222: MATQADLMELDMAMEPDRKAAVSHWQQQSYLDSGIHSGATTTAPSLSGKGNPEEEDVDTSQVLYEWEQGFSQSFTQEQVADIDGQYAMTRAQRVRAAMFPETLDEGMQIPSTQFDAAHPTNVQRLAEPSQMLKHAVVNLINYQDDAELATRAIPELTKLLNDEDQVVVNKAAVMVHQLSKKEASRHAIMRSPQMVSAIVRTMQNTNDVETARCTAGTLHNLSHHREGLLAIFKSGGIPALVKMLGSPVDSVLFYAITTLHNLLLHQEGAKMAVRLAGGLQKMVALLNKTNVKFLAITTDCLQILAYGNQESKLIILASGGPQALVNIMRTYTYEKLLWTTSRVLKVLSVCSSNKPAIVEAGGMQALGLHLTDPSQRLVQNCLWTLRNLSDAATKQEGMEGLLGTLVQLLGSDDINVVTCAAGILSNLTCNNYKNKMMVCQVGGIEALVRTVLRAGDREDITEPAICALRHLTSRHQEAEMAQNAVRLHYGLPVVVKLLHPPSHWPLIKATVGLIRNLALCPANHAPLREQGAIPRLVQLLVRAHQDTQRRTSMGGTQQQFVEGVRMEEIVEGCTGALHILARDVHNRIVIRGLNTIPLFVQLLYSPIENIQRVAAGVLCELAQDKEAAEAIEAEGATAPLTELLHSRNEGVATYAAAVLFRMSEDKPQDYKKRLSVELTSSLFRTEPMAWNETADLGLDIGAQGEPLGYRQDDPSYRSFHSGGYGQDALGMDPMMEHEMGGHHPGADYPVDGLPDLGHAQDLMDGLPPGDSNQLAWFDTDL
UniProt O15169: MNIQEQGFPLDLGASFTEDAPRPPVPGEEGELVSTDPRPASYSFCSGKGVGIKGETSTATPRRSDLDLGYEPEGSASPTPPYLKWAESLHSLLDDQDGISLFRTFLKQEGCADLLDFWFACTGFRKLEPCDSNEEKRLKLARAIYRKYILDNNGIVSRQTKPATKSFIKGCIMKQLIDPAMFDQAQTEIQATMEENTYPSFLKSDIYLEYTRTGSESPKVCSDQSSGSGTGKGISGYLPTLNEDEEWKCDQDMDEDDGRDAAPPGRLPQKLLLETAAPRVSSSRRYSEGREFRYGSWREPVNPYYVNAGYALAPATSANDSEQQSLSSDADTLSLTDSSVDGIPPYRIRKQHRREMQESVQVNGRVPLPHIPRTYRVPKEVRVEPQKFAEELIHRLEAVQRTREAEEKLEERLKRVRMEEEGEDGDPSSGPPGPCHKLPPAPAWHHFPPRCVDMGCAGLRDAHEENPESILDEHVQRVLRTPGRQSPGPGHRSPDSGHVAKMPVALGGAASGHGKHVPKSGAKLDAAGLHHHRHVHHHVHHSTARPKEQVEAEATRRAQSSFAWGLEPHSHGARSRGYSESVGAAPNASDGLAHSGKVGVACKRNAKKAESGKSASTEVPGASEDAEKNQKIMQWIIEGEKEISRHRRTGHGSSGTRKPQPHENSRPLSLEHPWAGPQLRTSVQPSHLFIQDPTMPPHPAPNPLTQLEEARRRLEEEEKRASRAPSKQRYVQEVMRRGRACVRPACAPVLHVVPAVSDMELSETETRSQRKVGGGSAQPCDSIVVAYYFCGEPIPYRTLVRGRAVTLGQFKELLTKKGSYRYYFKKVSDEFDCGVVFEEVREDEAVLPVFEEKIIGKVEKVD

Assays:
[1] = target: β-catenin (human (endogenous in HEK293T and SW480)) (UniProt P35222); assay: co-IP; endogenous proteins; HEK293T cells treated with 4 μM PF for 12 h, then with or without 10 μM MG132 for 8 h; β-catenin immunoprecipitated with a β-catenin antibody, protein A/G beads, immunoblot
[2] = target: β-catenin (human (endogenous in HEK293T and SW480)) (UniProt P35222); assay: co-IP; endogenous proteins; SW480 cells with or without 4 μM PF (some panels with 10 μM MG132 or YAP siRNA); lysates immunoprecipitated with β-catenin, β-TrCP, YAP or Axin1 antibody, protein A/G beads, immunoblot

binding [1]: binds
binding [2]: binds
Substance: Axin1 (from UniProt O15169 1-862)
